This continues a long series; more values of the same kind are listed elsewhere.
Experiments:
Type in all cases: cell-based
[1] = biological target: Histone-lysine N-methyltransferase EZH2 (Mus musculus) (UniProt Q61188); experiment: Inhibition of EZH2 in mouse B16-F1 migrating cells assessed as fold change in H3K27me3-dependent regulated Tcaim-mRNA expression at 3 uM measured by ChIP-seq analysis relative to control cells
[2] = biological target: Histone-lysine N-methyltransferase EZH2 (Mus musculus) (UniProt Q61188); experiment: Inhibition of EZH2 in mouse B16-F1 migrating cells assessed as fold change in H3K27me3-independent regulated Lgals3-mRNA expression at 3 uM measured by ChIP-seq analysis relative to control cells
[3] = biological target: Histone-lysine N-methyltransferase EZH2 (Mus musculus) (UniProt Q61188); experiment: Inhibition of EZH2 in mouse B16-F1 migrating cells assessed as fold change in H3K27me3-independent regulated Abhd18-mRNA expression at 3 uM measured by ChIP-seq analysis relative to control cells
[4] = biological target: Histone-lysine N-methyltransferase EZH2 (Mus musculus) (UniProt Q61188); experiment: Inhibition of EZH2 in mouse B16-F1 migrating cells assessed as fold change in H3K27me3-buffered regulated Ttc39b-mRNA expression at 3 uM measured by ChIP-seq analysis relative to control cells
[5] = biological target: Histone-lysine N-methyltransferase EZH2 (Mus musculus) (UniProt Q61188); experiment: Inhibition of EZH2 in mouse B16-F1 migrating cells assessed as fold change in H3K27me3-buffered regulated Rps6ka2-mRNA expression at 3 uM measured by ChIP-seq analysis relative to control cells
[6] = biological target: Histone-lysine N-methyltransferase EZH2 (Mus musculus) (UniProt Q61188); experiment: Inhibition of EZH2 in mouse B16-F1 migrating cells assessed as fold change in H3K27me3-buffered regulated Bckdha-mRNA expression at 3 uM measured by ChIP-seq analysis relative to control cells
[7] = biological target: Histone-lysine N-methyltransferase EZH2 (Mus musculus) (UniProt Q61188); experiment: Inhibition of EZH2 in mouse B16-F1 migrating cells assessed as fold change in H3K27me3-buffered regulated Fdps-mRNA expression at 3 uM measured by ChIP-seq analysis relative to control cells
[8] = biological target: Histone-lysine N-methyltransferase EZH2 (Mus musculus) (UniProt Q61188); experiment: Inhibition of EZH2 in mouse B16-F1 migrating cells assessed as fold change in H3K27me3-buffered regulated Acpp-mRNA expression at 3 uM measured by ChIP-seq analysis relative to control cells
[9] = biological target: Histone-lysine N-methyltransferase EZH2 (Mus musculus) (UniProt Q61188); experiment: Inhibition of EZH2 in mouse B16-F1 migrating cells assessed as fold change in H3K27me3-buffered regulated Mxd3-mRNA expression at 3 uM measured by ChIP-seq analysis relative to control cells
[10] = biological target: Histone-lysine N-methyltransferase EZH2 (Mus musculus) (UniProt Q61188); experiment: Inhibition of EZH2 in mouse B16-F1 migrating cells assessed as fold change in H3K27me3-buffered regulated Cenpf-mRNA expression at 3 uM measured by ChIP-seq analysis relative to control cells
[11] = biological target: Histone-lysine N-methyltransferase EZH2 (Mus musculus) (UniProt Q61188); experiment: Inhibition of EZH2 in mouse B16-F1 migrating cells assessed as fold change in H3K27me3-buffered regulated Usp53-mRNA expression at 3 uM measured by ChIP-seq analysis relative to control cells
[12] = biological target: Histone-lysine N-methyltransferase EZH2 (Mus musculus) (UniProt Q61188); experiment: Inhibition of EZH2 in mouse B16-F1 migrating cells assessed as fold change in H3K27me3-buffered regulated Eif4a2-mRNA expression at 3 uM measured by ChIP-seq analysis relative to control cells
[13] = biological target: Histone-lysine N-methyltransferase EZH2 (Mus musculus) (UniProt Q61188); experiment: Inhibition of EZH2 in mouse B16-F1 migrating cells assessed as fold change in H3K27me3-buffered regulated Lgr6-mRNA expression at 3 uM measured by ChIP-seq analysis relative to control cells
[14] = biological target: T1, RNA polymerase II (Mus musculus) (UniProt P08775+Q8CFI7+P97760+A0A3Q4L2S8+Q80UW8+P61219+P62488+Q923G2+P60898+O08740+Q63871+P62876); experiment: Inhibition of RNA polymerase II in mouse B16-F1 migrating cells assessed as fold change in Zfp580-RNA stability at 0.1 mM measured by ChIP-seq analysis relative to control cells
[15] = biological target: T1, RNA polymerase II (Mus musculus); experiment: Inhibition of RNA polymerase II in mouse B16-F1 migrating cells assessed as fold change in Ssna1-RNA stability at 0.1 mM measured by ChIP-seq analysis relative to control cells
[16] = biological target: T1, RNA polymerase II (Mus musculus); experiment: Inhibition of RNA polymerase II in mouse B16-F1 migrating cells assessed as fold change in Tmem219-RNA stability at 0.1 mM measured by ChIP-seq analysis relative to control cells
[17] = biological target: T1, RNA polymerase II (Mus musculus); experiment: Inhibition of RNA polymerase II in mouse B16-F1 migrating cells assessed as fold change in Snta1-RNA stability at 0.1 mM measured by ChIP-seq analysis relative to control cells
[18] = biological target: T1, RNA polymerase II (Mus musculus); experiment: Inhibition of RNA polymerase II in mouse B16-F1 migrating cells assessed as fold change in Hmox2-RNA stability at 0.1 mM measured by ChIP-seq analysis relative to control cells
[19] = biological target: T1, RNA polymerase II (Mus musculus); experiment: Inhibition of RNA polymerase II in mouse B16-F1 migrating cells assessed as fold change in Maf1-RNA stability at 0.1 mM measured by ChIP-seq analysis relative to control cells
[20] = biological target: T1, RNA polymerase II (Mus musculus); experiment: Inhibition of RNA polymerase II in mouse B16-F1 migrating cells assessed as fold change in Rrp7a-RNA stability at 0.1 mM measured by ChIP-seq analysis relative to control cells
[21] = biological target: T1, RNA polymerase II (Mus musculus); experiment: Inhibition of RNA polymerase II in mouse B16-F1 migrating cells assessed as fold change in Etf1-RNA stability at 0.1 mM measured by ChIP-seq analysis relative to control cells
[22] = biological target: T1, RNA polymerase II (Mus musculus); experiment: Inhibition of RNA polymerase II in mouse B16-F1 migrating cells assessed as fold change in Rapgef4-RNA stability at 0.1 mM measured by ChIP-seq analysis relative to control cells
[23] = biological target: T1, RNA polymerase II (Mus musculus); experiment: Inhibition of RNA polymerase II in mouse B16-F1 migrating cells assessed as fold change in Zdhhc2-RNA stability at 0.1 mM measured by ChIP-seq analysis relative to control cells
[24] = biological target: T1, RNA polymerase II (Mus musculus); experiment: Inhibition of RNA polymerase II in mouse B16-F1 migrating cells assessed as fold change in Tfpi-RNA stability at 0.1 mM measured by ChIP-seq analysis relative to control cells
[25] = biological target: T1, RNA polymerase II (Mus musculus); experiment: Inhibition of RNA polymerase II in mouse B16-F1 migrating cells assessed as fold change in Tmed7-RNA stability at 0.1 mM measured by ChIP-seq analysis relative to control cells
[26] = biological target: T1, RNA polymerase II (Mus musculus); experiment: Inhibition of RNA polymerase II in mouse B16-F1 migrating cells assessed as fold change in Aspm-RNA stability at 0.1 mM measured by ChIP-seq analysis relative to control cells
[27] = biological target: T1, RNA polymerase II (Mus musculus); experiment: Inhibition of RNA polymerase II in mouse B16-F1 migrating cells assessed as fold change in Eif5b-RNA stability at 0.1 mM measured by ChIP-seq analysis relative to control cells
[28] = biological target: T1, RNA polymerase II (Mus musculus); experiment: Inhibition of RNA polymerase II in mouse B16-F1 migrating cells assessed as fold change in Nudt12-RNA stability at 0.1 mM measured by ChIP-seq analysis relative to control cells
[29] = biological target: T1, RNA polymerase II (Mus musculus); experiment: Inhibition of RNA polymerase II in mouse B16-F1 migrating cells assessed as fold change in Tmem184c-RNA stability at 0.1 mM measured by ChIP-seq analysis relative to control cells
[30] = biological target: T1, RNA polymerase II (Mus musculus); experiment: Inhibition of RNA polymerase II in mouse B16-F1 migrating cells assessed as fold change in Zfr-RNA stability at 0.1 mM measured by ChIP-seq analysis relative to control cells

Chains of the proteins cited; added tags and fusions are not shown.
UniProt Q61188, whole entry: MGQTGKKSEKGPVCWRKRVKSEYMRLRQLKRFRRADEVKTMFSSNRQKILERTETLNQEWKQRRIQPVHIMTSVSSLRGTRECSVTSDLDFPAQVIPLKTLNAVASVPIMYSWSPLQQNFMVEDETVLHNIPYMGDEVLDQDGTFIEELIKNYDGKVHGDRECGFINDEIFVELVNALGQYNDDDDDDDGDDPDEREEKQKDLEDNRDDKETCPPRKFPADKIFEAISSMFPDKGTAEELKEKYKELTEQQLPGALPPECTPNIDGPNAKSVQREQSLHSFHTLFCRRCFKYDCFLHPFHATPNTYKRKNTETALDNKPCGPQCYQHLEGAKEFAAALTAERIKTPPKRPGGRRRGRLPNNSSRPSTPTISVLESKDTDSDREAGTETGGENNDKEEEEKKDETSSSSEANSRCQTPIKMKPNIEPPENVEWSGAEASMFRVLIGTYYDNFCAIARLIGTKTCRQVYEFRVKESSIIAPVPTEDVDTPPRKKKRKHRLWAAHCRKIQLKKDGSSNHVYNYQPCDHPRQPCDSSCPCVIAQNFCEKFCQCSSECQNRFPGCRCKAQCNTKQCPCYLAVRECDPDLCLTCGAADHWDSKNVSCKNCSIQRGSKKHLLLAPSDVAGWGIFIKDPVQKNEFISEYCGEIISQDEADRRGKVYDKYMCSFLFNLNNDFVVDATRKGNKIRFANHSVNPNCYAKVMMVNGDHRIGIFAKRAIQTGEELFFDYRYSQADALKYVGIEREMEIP

SMILES: CCCc1cc(C)[nH]c(=O)c1CNC(=O)c1cc(-c2ccnc(N3CCN(C)CC3)c2)cc2c1cnn2C(C)C
- log2FC [1]: -0.25
- log2FC [2]: 0.78
- log2FC [3]: -0.75
- log2FC [4]: 0.54
- log2FC [5]: 0.51
- log2FC [6]: 0.42
- log2FC [7]: 0.39
- log2FC [8]: -0.39
- log2FC [9]: -0.42
- log2FC [10]: -0.45
- log2FC [11]: -0.51
- log2FC [12]: -0.53
- log2FC [13]: -0.78

SMILES: OC[C@H]1O[C@@H](n2cnc3cc(Cl)c(Cl)cc32)[C@H](O)[C@@H]1O
- log2FC [14]: 0.66
- log2FC [15]: 0.49
- log2FC [16]: 0.49
- log2FC [17]: 0.46
- log2FC [18]: 0.44
- log2FC [19]: 0.43
- log2FC [20]: 0.39
- log2FC [21]: -0.4
- log2FC [22]: -0.44
- log2FC [23]: -0.49
- log2FC [24]: -0.5
- log2FC [25]: -0.5
- log2FC [26]: -0.57
- log2FC [27]: -0.57
- log2FC [28]: -0.66
- log2FC [29]: -0.68
- log2FC [30]: -0.73

— ChEMBL document CHEMBL5674883, “The Heterochromatin Landscape in Migrating Cells and the Importance of H3K27me3 for Associated Transcriptome Alterations” (Cells, 2018)
